Measured data: PubChem BioAssay AID1053208 (Peter MacCallum Cancer Centre, 2014)
This is a random part of about 17,000 reagents. 788 of all reagents (4.7%) count as active. 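Calls rest on z-score classes alone; an extra cut-off of viability at most 70% of control was not applied to them.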 Unmarked entries are inactive. Further read-outs or replicates are left out here. Reagent sequences are not shown.

- Test: 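Find knock-downs that sensitise mouse osteosarcoma cells to doxorubicin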 (primary screen)
- System: mouse osteosarcoma cells, early-passage culture from an engineered mouse model of fibroblastic bone tumour
- Knock-down reagent: siRNA pool against mouse genes, 40 nM
- Time to read-out: about 120 h (48 h before drug, then 72 h with drug)
- Conditions: doxorubicin 100 nM for 72 h, roughly 30-40% inhibitory dose
- Measurement: 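Viability read as ATP luminescence after 72 h of 100 nM doxorubicin or none, duplicate wells averaged, scaled to non-targeting siRNA, then expressed as robust z-scores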
- Reading the numbers: viability z-score with doxorubicin: higher = more viable cells under doxorubicin; viability z-score without drug: higher = more viable cells with knock-down alone
- Call rule: 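a pool counts as active when its viability z-score with doxorubicin is -2 or below and its z-score without drug lies between -2 and 2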

| target | combined z-score class | viability z-score with doxorubicin | viability z-score without drug |
| --- | --- | --- | --- |
| Akr1b7 | no change with or without drug | 0.34 | 0 |
| Gulp1 | no change with or without drug | 1.01 | 0.17 |
| Gfus | no change with or without drug | -1.69 | -0.17 |
| Or4c113 | no change with or without drug | 0.34 | -1.01 |
| Tmem230 | no change with or without drug | -0.67 | 0.51 |
| Hrg | no change with or without drug | -0.45 | -0.51 |
| Ifna14 | no change with or without drug | -1.01 | -0.17 |
| Slc25a24 | no change with or without drug | -0.45 | -0.17 |
| Rhox9 | no change with or without drug | -0.22 | 0.51 |
| Or52e2 | no change with or without drug | 0.34 | 0 |
| Pard3 | no change with or without drug | -1.35 | 0.17 |
| Or8g24 | no change with or without drug | -1.46 | -1.35 |
| Hacd4 | no change with or without drug | -0.9 | -0.51 |
| Izumo4 | no change with or without drug | -0.45 | -0.84 |
| Calca | no change with or without drug | -0.22 | -0.17 |
| Ciao3 | low cell count without drug only | 0.45 | -2.19 |
| Mff | low cell count without drug only | 0 | -2.02 |
| Slk | no change with or without drug | -1.57 | -0.67 |
| Ddx27 | no change with or without drug | -0.22 | -0.17 |
| Tex18 | no change with or without drug | 1.57 | 1.85 |
| Or5d39 | no change with or without drug | -1.35 | -0.84 |
| Hemk2 | no change with or without drug | 0.56 | 0.84 |
| Csnk1e | no change with or without drug | 0 | 0.84 |
| Smad1 | no change with or without drug | 0.9 | 0.51 |
| Tnik | no change with or without drug | 0.45 | 1.18 |
| Clcn5 | no change with or without drug | -0.11 | 0.51 |
| Marcks | no change with or without drug | 1.69 | -0.84 |
| Ripk2 | high cell count without drug only | 0.67 | 2.19 |
| Slc9d1 | no change with or without drug | 0 | 0.51 |
| Gimap9 | no change with or without drug | -0.22 | 0 |
| Crk | no change with or without drug | -1.12 | -0.51 |
| Defa31 | high cell count without drug only | 1.8 | 2.19 |
| Ptdss1 | no change with or without drug | 1.35 | 0.34 |
| Or8b40 | no change with or without drug | -0.56 | 0.17 |

Records above whose target name starts with P or p (2):
| target | combined z-score class | viability z-score with doxorubicin | viability z-score without drug |
| --- | --- | --- | --- |
| Pard3 | no change with or without drug | -1.35 | 0.17 |
| Ptdss1 | no change with or without drug | 1.35 | 0.34 |
